Values from PubChem BioAssay AID1904 (GNF, 2009).

Test: 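Novel clock parts and modifiers of the cell-autonomous circadian rhythm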 (follow-up of hits)
System: human U2OS osteosarcoma cells stably expressing a destabilised luciferase driven by the Bmal1 promoter
Reagent: siRNA pair against human genes, 12.5 nM (two siRNAs, 0.5 pmol each, per well)
Time to read-out: about 3 days after transfection, then luminescence recorded for about 4 days
Read-out: 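Bmal1 reporter light output measured every 2 hours over several days, detrended, then fitted to give period and amplitude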
Call rule: 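Scored active if separate single siRNAs repeated the clock phenotype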
Meaning of the calls: active = confirmed by single siRNAs; inactive = not confirmed
The reagents shown are a selection, not the whole library. 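Lists only primary-screen hits; phenotype classes come from fitted traces, and the underlying luminescence values are not given.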 The numbers tell different reagents against one gene apart.

Gene	reagent no.	clock phenotype class	confirmed with single siRNAs	call
NOB1P	1	longer clock period; seen with two independent siRNA pairs for the gene	phenotype reproduced by individual siRNAs	active
NOB1P	2	longer clock period; seen with two independent siRNA pairs for the gene	phenotype reproduced by individual siRNAs	active
ZNF91	1	longer clock period; seen with two independent siRNA pairs for the gene	phenotype reproduced by individual siRNAs	active
ZNF91	2	longer clock period; seen with two independent siRNA pairs for the gene	phenotype reproduced by individual siRNAs	active
GMFG	1	shorter clock period; seen with one siRNA pair in duplicate wells	phenotype reproduced by individual siRNAs	active
GMFG	2	shorter clock period; seen with one siRNA pair in duplicate wells	phenotype reproduced by individual siRNAs	active
SCAMP2	1	higher rhythm amplitude; seen with one siRNA pair in duplicate wells	phenotype reproduced by individual siRNAs	active
SCAMP2	2	higher rhythm amplitude; seen with one siRNA pair in duplicate wells	phenotype reproduced by individual siRNAs	active
RLN3R2	1	longer clock period; seen with two independent siRNA pairs for the gene	phenotype reproduced by individual siRNAs	active
RLN3R2	2	longer clock period; seen with two independent siRNA pairs for the gene	phenotype reproduced by individual siRNAs	active
OPN1MW	1	longer clock period; seen with two independent siRNA pairs for the gene	phenotype reproduced by individual siRNAs	active
OPN1MW	2	longer clock period; seen with two independent siRNA pairs for the gene	phenotype reproduced by individual siRNAs	active
SNRPB2	1	longer clock period; seen with two independent siRNA pairs for the gene	not retested with individual siRNAs	
MAPRE2	1	shorter clock period; seen with one siRNA pair in duplicate wells	phenotype not reproduced by individual siRNAs	inconclusive
MAPRE2	2	shorter clock period; seen with one siRNA pair in duplicate wells	phenotype not reproduced by individual siRNAs	inconclusive
FUCA1	1	shorter clock period; seen with one siRNA pair in duplicate wells	phenotype reproduced by individual siRNAs	active
FUCA1	2	shorter clock period; seen with one siRNA pair in duplicate wells	phenotype reproduced by individual siRNAs	active
SLC34A3	1	longer clock period; seen with two independent siRNA pairs for the gene	phenotype reproduced by individual siRNAs	active
SLC34A3	2	longer clock period; seen with two independent siRNA pairs for the gene	phenotype reproduced by individual siRNAs	active
KIAA0052	1	higher rhythm amplitude; seen with two independent siRNA pairs for the gene	phenotype reproduced by individual siRNAs	active
KIAA0052	2	higher rhythm amplitude; seen with two independent siRNA pairs for the gene	phenotype reproduced by individual siRNAs	active
PHEX	1	longer clock period; seen with two independent siRNA pairs for the gene	phenotype reproduced by individual siRNAs	active
PHEX	2	longer clock period; seen with two independent siRNA pairs for the gene	phenotype reproduced by individual siRNAs	active

No new results follow: an excerpt of the list.
Gene	reagent no.	clock phenotype class	confirmed with single siRNAs	call
FUCA1	2	shorter clock period; seen with one siRNA pair in duplicate wells	phenotype reproduced by individual siRNAs	active
SLC34A3	1	longer clock period; seen with two independent siRNA pairs for the gene	phenotype reproduced by individual siRNAs	active
SLC34A3	2	longer clock period; seen with two independent siRNA pairs for the gene	phenotype reproduced by individual siRNAs	active
KIAA0052	1	higher rhythm amplitude; seen with two independent siRNA pairs for the gene	phenotype reproduced by individual siRNAs	active
KIAA0052	2	higher rhythm amplitude; seen with two independent siRNA pairs for the gene	phenotype reproduced by individual siRNAs	active
PHEX	1	longer clock period; seen with two independent siRNA pairs for the gene	phenotype reproduced by individual siRNAs	active

The results go on:
Gene	reagent no.	clock phenotype class	confirmed with single siRNAs	call
PANK2	1	longer clock period; seen with two independent siRNA pairs for the gene	phenotype reproduced by individual siRNAs	active
PANK2	2	longer clock period; seen with two independent siRNA pairs for the gene	phenotype reproduced by individual siRNAs	active
MGC3234	1	shorter clock period; seen with one siRNA pair in duplicate wells	phenotype reproduced by individual siRNAs	active
MGC3234	2	shorter clock period; seen with one siRNA pair in duplicate wells	phenotype reproduced by individual siRNAs	active
DKFZp434O0527	1	higher rhythm amplitude; seen with two independent siRNA pairs for the gene	phenotype reproduced by individual siRNAs	active
DKFZp434O0527	2	higher rhythm amplitude; seen with two independent siRNA pairs for the gene	phenotype reproduced by individual siRNAs	active
CDK3	1	longer clock period; seen with two independent siRNA pairs for the gene	phenotype reproduced by individual siRNAs	active
CDK3	2	longer clock period; seen with two independent siRNA pairs for the gene	phenotype reproduced by individual siRNAs	active
GPR135	1	longer clock period; seen with two independent siRNA pairs for the gene	phenotype reproduced by individual siRNAs	active
GPR135	2	longer clock period; seen with two independent siRNA pairs for the gene	phenotype reproduced by individual siRNAs	active
SUV420H1	1	higher rhythm amplitude; seen with one siRNA pair in duplicate wells	phenotype reproduced by individual siRNAs	active
SUV420H1	2	higher rhythm amplitude; seen with one siRNA pair in duplicate wells	phenotype reproduced by individual siRNAs	active
DDX3X	1	longer clock period; seen with two independent siRNA pairs for the gene	phenotype reproduced by individual siRNAs	active
LOC349136	1	longer clock period; seen with two independent siRNA pairs for the gene	phenotype reproduced by individual siRNAs	active
SSBP1	1	longer clock period; seen with two independent siRNA pairs for the gene	phenotype reproduced by individual siRNAs	active
SSBP1	2	longer clock period; seen with two independent siRNA pairs for the gene	phenotype reproduced by individual siRNAs	active
BCR	1	shorter clock period; seen with two independent siRNA pairs for the gene	phenotype reproduced by individual siRNAs	active
BCR	2	shorter clock period; seen with two independent siRNA pairs for the gene	phenotype reproduced by individual siRNAs	active
NUP88	1	longer clock period; seen with two independent siRNA pairs for the gene	phenotype reproduced by individual siRNAs	active
NUP88	2	longer clock period; seen with two independent siRNA pairs for the gene	phenotype reproduced by individual siRNAs	active
OPN1LW	1	longer clock period; seen with two independent siRNA pairs for the gene	phenotype reproduced by individual siRNAs	active
OPN1LW	2	longer clock period; seen with two independent siRNA pairs for the gene	phenotype reproduced by individual siRNAs	active
FLJ22457	1	higher rhythm amplitude; seen with one siRNA pair in duplicate wells	phenotype reproduced by individual siRNAs	active
FLJ22457	2	higher rhythm amplitude; seen with one siRNA pair in duplicate wells	phenotype reproduced by individual siRNAs	active
ATF6	1	shorter clock period; seen with two independent siRNA pairs for the gene	phenotype reproduced by individual siRNAs	active
ATF6	2	shorter clock period; seen with two independent siRNA pairs for the gene	phenotype reproduced by individual siRNAs	active
UBE2B	1	longer clock period; seen with two independent siRNA pairs for the gene	phenotype reproduced by individual siRNAs	active
UBE2B	2	longer clock period; seen with two independent siRNA pairs for the gene	phenotype reproduced by individual siRNAs	active
CBLN1	1	longer clock period; seen with two independent siRNA pairs for the gene	phenotype not reproduced by individual siRNAs	inconclusive
CBLN1	2	longer clock period; seen with two independent siRNA pairs for the gene	phenotype not reproduced by individual siRNAs	inconclusive
PAPOLB	1	longer clock period; seen with two independent siRNA pairs for the gene	phenotype reproduced by individual siRNAs	active
PAPOLB	2	longer clock period; seen with two independent siRNA pairs for the gene	phenotype reproduced by individual siRNAs	active
CKLFSF7	1	shorter clock period; seen with one siRNA pair in duplicate wells	phenotype reproduced by individual siRNAs	active
NOL6	1	longer clock period; seen with two independent siRNA pairs for the gene	phenotype reproduced by individual siRNAs	active
NOL6	2	longer clock period; seen with two independent siRNA pairs for the gene	phenotype reproduced by individual siRNAs	active
